From doi:10.1101/2022.04.11.487887 (bioRxiv, 2022) come the findings set out here.

What all share (experiment): SEC
For orientation: In gel filtration, larger molecules generally elute earlier.

Assay [1] addresses Strep-His-Halo-3C-human γTuNA I67D/L70D (human).
The target in assay [2] is Strep-His-Halo-3C-human γTuNA I67A/L70A (human).
Assay [3] addresses Strep-His-Halo-3C-Xenopus γTuNA I67D/L70D (Xenopus laevis).

Results are given in words; binding and its absence hold for the method and conditions named. Where a sequence is shown, tags or fusion partners need not be part of it.

For the molecule SPTRARNMKDFENQDTEDKKENFNLKLRIYFLEERMQQEFHGPTEH (domain or fragment) [Strep-His-Halo-3C-human γTuNA I67D/L70D], the binding result in assay [1] is on record as “no binding (tested: 50 μM)”.
SPTRARNMKDFENQATEAKKENFNLKLRIYFLEERMQQEFHGPTEH (domain or fragment) [Strep-His-Halo-3C-human γTuNA I67A/L70A]: the binding result in assay [2] is given as “no binding (tested: 50 μM)”.
In the case of MKDFEKQDAEDKKENFNLKLRIYFLEEQVQQKCDNSSEDLYRMNIE (domain or fragment) [Strep-His-Halo-3C-Xenopus γTuNA I67D/L70D], the binding result in assay [3] is “no binding (tested: 50 μM)”.
